In PubChem BioAssay AID1508600 (Functional Genomics Laboratory (NCATS/FGL), 2020) one finds z-score data, which are given here for 107 sequences.

The whole screen tested about 53,000 sequences, of which about 3,700 (7%) were called active.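 Rule for the calls: active = gene knockdowns whose robust z-score for IL-1 alpha signal is at least 2 or at most -2, so actives lie on both sides; inactive = the rest.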 Some of the results follow.

The nature of the experiment: Components of the Cytosolic LPS Sensing Pathway: Gene Identification via Genome-wide siRNA Screen.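 Note: robust z of the log signal after scaling to non-targeting control siRNA wells of the plate.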 Conditions: RAW264.7 macrophages, IL-1a HTRF, actives lie on both sides, screened at 100 nM (by protocol), cells primed 5 h with Pam3CSK4 first. The method in brief:
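RAW264.7 mouse macrophages reverse-transfected with single siRNAs (100 nM final) for 48h, primed with Pam3CSK4 for 5 hours, then transfected with LipidA for 24 hour. Supernatant IL-1a read by HTRF; values normalized to negative-control median, log-transformed robust z-scores.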
Take GGAUAAUGGUAUCUACUUCTT against Cd79b: the z-score is inactive: 1.28.

For the sequence GGAAUGGUUUGGUGAGUUUTT against Pramel1, the z-score was inactive: 0.859.

On to GGUCUUUCCAAUGUUCACATT against Nos1, for which the z-score is inactive: -0.6.

Take GGUACAAAGCCAUUGUACGTT against Grpr: the z-score was inactive: -0.381.

Turning to CCAUGAGUUAGUGUUCGGUTT against Blmh, the z-score is inactive: -1.42.

Turning to GGUGAUUCGUCAGAAGCUGTT against Gpr84, the z-score is inactive: -0.61.

Regarding GCACAUAGCCGACACCUACTT against Hsdl1, the z-score was inactive: 0.465.

For GGUUGAUGAUAGCUCUGAATT against Opn1mw, the z-score is inactive: -0.22.

For the sequence GCGGAUGCAAAUCGAUGAATT against Cep135, the z-score is inactive: -0.507.

Consider GCAUGAUCUCAGGUGUUUGTT against Timm13, for which the z-score was inactive: -1.54.

As for CCCUAAGACGAAGGAAAUGTT against Pdrg1, the z-score is inactive: -0.844.

Consider GCUUUACGGUCAAUUAGCCTT against Nr2e1, for which the z-score was inactive: 0.0117.

In the case of CCAAAAUGGAAUGCUCUUCTT against Zfp944, the z-score is inactive: -0.658.

As to UAGUCAUCUUCAUUCUCCUTT against Olfr1251, the z-score is inactive: -0.821.

On to GGUGGAUGUGUCAGAAUACTT against Alox15, for which the z-score is inactive: -0.134.

With GGUCUUACGAGUAUUUUUUTT against Rnft1, the z-score is inactive: -0.331.

With GCAUAACAUGCUCUUCCAUTT against Mtmr1, the z-score is inactive: 1.56.

As for GGAACAAGCUGUCUUAGAGTT against Olfr157, the z-score was inactive: 1.34.

As to GGGAUUCUCCAAAAGGAAGTT against Arhgap6, the z-score was inactive: 0.856.

As to CGGAUACAGGUUCGGGUAATT against Nemp1, the z-score was inactive: 1.06.

Take CCACUCAACUAGAUUAUUGTT against Wdr20: the z-score was inactive: -0.276.

With GGAAACCCAAUAUCAAACUTT against Rnf138, the z-score is inactive: 0.252.

On to GGACCUUUCAUCAACCCAUTT against Olfr676, for which the z-score was active: 2.13.

With GGACUCACCCUGAGAGAUUTT against Abca4, the z-score is inactive: 0.132.

For GCUUGGUGUAAUCAUGCGCTT against Prl7d1, the z-score is inactive: 0.314.

With GGGUCAUGUGAGCCAAUUUTT against Tcf20, the z-score is inactive: -0.569.

For GGACAUACCGAGAAGAUUGTT against Dmac1, the z-score was inactive: -1.25.

On to GGUCCUGUCUUUACAAUGUTT against Eml6, for which the z-score was inactive: 1.76.

Consider “GCGUGAAGGAGCACAGAUUTT against 4933409K07Rik”, for which the z-score was inactive: 0.678.

On to GCCGAUGAAGUAAAUUUACTT against Klhl32, for which the z-score is inactive: 0.221.

Take GGUGUGAUGCAUCAAGUCATT against Trip12: the z-score is inactive: 0.696.

Turning to GCUCUUUUUAACACUCUUATT against Bace1, the z-score is inactive: 0.261.

As for GGCAGACAUGAAAUGCAUUTT against Osgin2, the z-score is inactive: 0.79.

On to GCCUGACAGAAUUAUUUGCTT against Trnt1, for which the z-score was inactive: -1.21.

For the sequence GGAAAAAGACCAUCUGUGGTT against Plk3, the z-score was inactive: -1.63.

For GCCACUGUUGUGUAAACUATT against Rap2a, the z-score was active: 2.01.

Turning to GGUAAUUGGUAGAACAGUUTT against Olfr837, the z-score was inactive: -0.53.

For CCAAGAAGGUUGGGAAAGCTT against Rpl34, the z-score was inactive: -0.781.

Take CCGUUACAAACCAAGACCUTT against Flt3: the z-score was inactive: -0.716.

With GGAUACUGUGUGGUCAUGUTT against Zfp60, the z-score is inactive: -1.26.

Take GGAAGUGAAUAUUGAGUUUTT against Bccip: the z-score was active: 2.04.

For GAUCUUCCUGACAGUGGUGTT against Psors1c2, the z-score was inactive: -0.15.

As to GCUCACCCUAUUUGCUGCCTT against Kcnj15, the z-score was inactive: 0.533.

As for GGAGCUCUGUGAAUCUCUUTT against Ska1, the z-score is inactive: -0.796.

Take GGGUAUGACAACAAACUUCTT against Gabrg2: the z-score is inactive: -0.422.

Take CGAACACUCGUUAAAGAAATT against Krt23: the z-score is inactive: 0.247.

For the sequence GGAUCAAGAAACCAGACUATT against Mrpl23, the z-score is inactive: 0.131.

Consider CCUGUCGACCUUAUUGUAATT against Vmn1r215, for which the z-score was inactive: -1.96.

As for GCUCUCUUGUGCUCCAACATT against Olfr531, the z-score was inactive: -0.143.

As for CCUGCUUGCCAACACCAUATT against Slc39a13, the z-score was active: -2.2.

With GGCUGCUAAUUGGAUUUUUTT against Ccnj, the z-score was inactive: -0.936.

With GCAGUCAAUGAACAUGUUGTT against Emc7, the z-score is inactive: -1.4.

For the sequence GGGCUACAUGCCAUAUUUATT against Swap70, the z-score is inactive: 1.09.

Regarding GGUUCACAUCCUCCUCAGATT against Twist2, the z-score is inactive: 1.08.

In the case of CCUCUUUUUCUGUUACCGCTT against Tbc1d25, the z-score was inactive: -0.295.

With GCCAAUGAUGUAGCAAAUUTT against Slc20a1, the z-score was inactive: 1.71.

As for GGUCAUGGCUACUUCAUCCTT against Dok7, the z-score was inactive: 0.583.

Consider GGUCAUUAUUGUCAUCUACTT against Tmem9, for which the z-score was inactive: -0.323.

For GCUGUGAUCUGAGGAGACUTT against Igf1, the z-score is inactive: 0.312.

In the case of GGAGCUGUUCUCUGAAAUGTT against Ift27, the z-score is inactive: 1.07.

GGUUCCACUCAUUGUCUCGTT against Fndc5: the z-score was inactive: -0.573.

“GGCCUAGAUCAAUACCAAGTT against 4930433I11Rik”: the z-score is inactive: -0.809.

GAUAUGGAGGGCUAUGAUUTT against D2hgdh: the z-score is inactive: -0.294.

GGUUUUGUAAUGUACAAACTT against Tada3: the z-score was inactive: -0.575.

GGAACACUAAAACUCAACUTT against Gpr146: the z-score was inactive: -0.948.

Turning to UUUAUACCAAUGCUGUACGTT against Gm5334, the z-score is inactive: 0.121.

As for CGUUUUCUCCUUCGAUCUUTT against Sema6c, the z-score was inactive: 0.643.

As for CCUAAUUAAGGUUUCUGUUTT against C8a, the z-score was inactive: 0.0122.

For GCCAGAAUGGACUUGAGAATT against Vmn1r227, the z-score is inactive: -1.21.

CCCGGGUGUUUUUGCCUAUTT against Kcnc4: the z-score was inactive: 0.444.

In the case of GGUUAUUACGUAGUUGGUATT against Cd46, the z-score was inactive: 0.683.

Consider GGCGAUACCUAAAACAUCUTT against Noxa1, for which the z-score was inactive: 1.09.

Regarding GGUCAUUGGCACCAACAAGTT against Tgfbi, the z-score was inactive: -0.722.

With CCCAAAGGUCUAAUGUAAATT against Prok2, the z-score is inactive: -0.501.

For the sequence GGAGGAAUUCAUUAGAAACTT against Psmc1, the z-score is active: -2.04.

For the sequence GGUGGACCUAGGUAACAUGTT against Cyp2d9, the z-score is inactive: -0.0997.

GGGAUUUCUGGUUUACUUCTT against Nudcd3: the z-score is inactive: 1.93.

As for GCAUGAUCCUUCAUAACAUTT against Armc12, the z-score is inactive: -0.0732.

For the sequence CCAAGAAUCAAGCUGUGAATT against Arpc5l, the z-score is inactive: -0.334.

On to “GGAAAAUCACUGAAAAGUATT against St6galnac1”, for which the z-score is inactive: -0.196.

For the sequence GGAACUGCUGUGCAGUUUUTT against Tmem179b, the z-score is inactive: 1.4.

Turning to GGUCAUUCAUAAAGAUUGATT against Kcnma1, the z-score is inactive: -1.9.

For GGAAUUAAGGUAGAGGUUATT against Ms4a6d, the z-score is inactive: -0.174.

For the sequence CCCUGGCUGAGUGCUUUGUTT against Olfr199, the z-score was inactive: 0.887.

Turning to GGAGGAAAACAAACCACAGTT against Tpbpa, the z-score is inactive: 0.0817.

With GGUGCAAUUAUUUGAUCAUTT against Ptprb, the z-score was inactive: -0.314.

In the case of GCAUGAUGGUGCGCUUAAGTT against Ngdn, the z-score was inactive: -0.187.

With CGAGGAUGCCCUAAGGGUUTT against Lrrtm3, the z-score was inactive: -0.106.

In the case of CCAACAUCGAGCUAGCCACTT against Psma5, the z-score is active: -2.28.

For GGUAUUUAUUGACAGGUGATT against Sh2d1b1, the z-score was inactive: -0.836.

Take GCUGUUCUAAUUCAUAAACTT against Ptrh2: the z-score was inactive: 0.359.

For GGUUGGUUCAGAUAAGUCCTT against Egflam, the z-score was inactive: 0.854.

Turning to GGCUCUACAUUCCAGAGGUTT against Slc35c2, the z-score is inactive: 0.202.

For GCCCGUGUGCCCAAGAAAATT against Pde6d, the z-score was inactive: -1.3.

Take GCUACUGCAGUAUACAUUGTT against Olfr869: the z-score is active: 2.21.

As to GGUUCAUCAAACUUGCUUGTT against Olfr1312, the z-score is inactive: 0.569.

Take GGGAAAGAGAAAUUUAAAGTT against Kcne4: the z-score was inactive: 1.3.

As for GGAAGACGGCAACUAUCCATT against Cyp2c50, the z-score was inactive: 1.23.

Turning to GCUUAUAAUGCCAUUACUUTT against Rad21, the z-score was inactive: -0.548.

Consider “GGCCAGAUUACCAGCAAUATT against 1810009J06Rik”, for which the z-score was inactive: 0.34.

For the sequence GGUGUUUGGGAACAAGAUGTT against Eif2ak3, the z-score was inactive: -0.65.

For the sequence GGAAACACGUCUCCUCCAUTT against Krt87, the z-score is inactive: 1.26.

As to GGUAUGAUGAAAAUACACATT against Mmp1a, the z-score is active: 2.56.

Regarding GGGCAUGUGAUAGAACAAUTT against Stoml1, the z-score is inactive: -0.701.

For GCCUAUGAUAAGUCUGUGUTT against Ifitm10, the z-score was active: -2.25.

Regarding GGUUGGAAAUGAAAUCAAUTT against Erc2, the z-score is active: 2.36.

Turning to GCCAAAGCCUAGAGCCAAUTT against Olfr410, the z-score was inactive: 0.597.
